Assay results

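A panel of P. falciparum strains inside erythrocytes is exposed to compounds for three days, then a DNA-binding dye reports the amount of parasite DNA.
Each compound was titrated across a series from about 0.000037 to 29 µM.
The number is the fitted AC50, the concentration giving a half-maximal change in signal; a lower value means higher potency, whether the curve shows a decrease or an increase.
Calls follow the curve class and fit quality: every row here is inconclusive, covering signal-raising curves and weak, poorly fitted, partial or highest-dose-only inhibition curves.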

Values are in nM.
All entries here are filed as inconclusive.
Only part of the assay is shown, chiefly results filed as inconclusive.
Potencies fitted to partial, single-point or poorly fitting curves are rough.

SMILES: CCOC(=O)c1ccc(C#Cc2ccc3c(c2)C(C)(C)CCS3)nc1
condition: CP250
potency (nM): 1778
curve as filed: inhibitor, single point

SMILES: CCOC(=O)c1ccc(C#Cc2ccc3c(c2)C(C)(C)CCS3)nc1
condition: CP286
potency (nM): 14125
curve as filed: inhibitor, single point

SMILES: CCOC(=O)c1ccc(C#Cc2ccc3c(c2)C(C)(C)CCS3)nc1
condition: DIV14
potency (nM): 13459
curve as filed: inhibitor, single point

SMILES: CCOC(=O)c1ccc(C#Cc2ccc3c(c2)C(C)(C)CCS3)nc1
condition: CP247
potency (nM): 12589
curve as filed: inhibitor, single point

SMILES: CCOC(=O)c1ccc(C#Cc2ccc3c(c2)C(C)(C)CCS3)nc1
condition: TAB109
potency (nM): 10000
curve as filed: inhibitor, single point

SMILES: CCOC(=O)c1ccc(C#Cc2ccc3c(c2)C(C)(C)CCS3)nc1
condition: CP260
potency (nM): 14125
curve as filed: inhibitor, single point

SMILES: CCOC(=O)c1ccc(C#Cc2ccc3c(c2)C(C)(C)CCS3)nc1
condition: CP335
potency (nM): 15101
curve as filed: inhibitor, single point

SMILES: CCOC(=O)c1ccc(C#Cc2ccc3c(c2)C(C)(C)CCS3)nc1
condition: CP291
potency (nM): 6012
curve as filed: inhibitor, partial curve

SMILES: CCOC(=O)c1ccc(C#Cc2ccc3c(c2)C(C)(C)CCS3)nc1
condition: CP185
potency (nM): 446.7
curve as filed: inhibitor, partial curve

SMILES: CCOC(=O)c1ccc(C#Cc2ccc3c(c2)C(C)(C)CCS3)nc1
condition: TAB113
potency (nM): 3548
curve as filed: inhibitor, single point

SMILES: CCOC(=O)c1ccc(C#Cc2ccc3c(c2)C(C)(C)CCS3)nc1
condition: CP265
potency (nM): 17782
curve as filed: inhibitor, single point

SMILES: CCOC(=O)c1ccc(C#Cc2ccc3c(c2)C(C)(C)CCS3)nc1
condition: CP191
potency (nM): 12589
curve as filed: inhibitor, single point

SMILES: CCOC(=O)c1ccc(C#Cc2ccc3c(c2)C(C)(C)CCS3)nc1
condition: ICS
potency (nM): 17782
curve as filed: inhibitor, single point

SMILES: CCOC(=O)c1ccc(C#Cc2ccc3c(c2)C(C)(C)CCS3)nc1
condition: TAB165
potency (nM): 10000
curve as filed: inhibitor, single point

SMILES: CCOC(=O)c1ccc(C#Cc2ccc3c(c2)C(C)(C)CCS3)nc1
condition: CP305
potency (nM): 16944
curve as filed: inhibitor, partial curve, poor fit

SMILES: CCOC(=O)c1ccc(C#Cc2ccc3c(c2)C(C)(C)CCS3)nc1
condition: ATS189
potency (nM): 10000
curve as filed: inhibitor, single point

SMILES: CCOC(=O)c1ccc(C#Cc2ccc3c(c2)C(C)(C)CCS3)nc1
condition: CP211
potency (nM): 6746
curve as filed: inhibitor, partial curve, poor fit

SMILES: CCOC(=O)c1ccc(C#Cc2ccc3c(c2)C(C)(C)CCS3)nc1
condition: CP268
potency (nM): 15101
curve as filed: inhibitor, partial curve, poor fit

SMILES: CCOC(=O)c1ccc(C#Cc2ccc3c(c2)C(C)(C)CCS3)nc1
condition: PC26
potency (nM): 2133
curve as filed: inhibitor, partial curve, poor fit

SMILES: CS(=O)(=O)c1ccc([C@@H](O)[C@@H](COC(=O)CN)NC(=O)C(Cl)Cl)cc1
condition: CP217
potency (nM): 15848
curve as filed: inhibitor, single point

SMILES: CS(=O)(=O)c1ccc([C@@H](O)[C@@H](COC(=O)CN)NC(=O)C(Cl)Cl)cc1
condition: CP252
potency (nM): 7943
curve as filed: inhibitor, partial curve

Source: PubChem BioAssay AID504749 (NCATS, 2011).